For the test, the target named is A0A0A0MT26|P13637 and related entries (UniProt P13637). The test is described as follows: NP40-soluble protein abundance relative to vehicle (solubility fold change) (ratio); higher = more soluble protein in presence of ATP. The method, boiled down:
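Eight concentrations, 0.1 to 10 mM, were tested on Jurkat crude lysate for 10 min at room temperature and then 3 min at 37 °C, in three independent experiments. The lysate was solubilised with 0.8% NP40 and benzonase, ultracentrifuged, and the supernatant TMT-labelled for LC-MS/MS. Each value is the fold change against the detergent-processed vehicle in its own replicate, from vsn-normalised intensities.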

± gives the standard deviation of the averaged measurements. The list shows a part of the results, in another mix than the full data.

Take `Nc1ncnc2c1ncn2[C@@H]1O[C@H](COP(=O)(O)OP(=O)(O)OP(=O)(O)O)[C@@H](O)[C@H]1O` [adenosine triphosphate]: the NP40-soluble protein abundance is, setting by setting: (concentration: 1mM) 1.02 ± 0.028; (concentration: 2mM) 1 ± 0.028; (concentration: 4mM) 0.984 ± 0.043; (concentration: 6mM) 1.02 ± 0.013; (concentration: 8mM) 0.976 ± 0.048; (concentration: 10mM) 0.955 ± 0.051.

The values are drawn from the supplement of paper PMC6411743.
